In PMC7648763:
No constants are given. Whether binding was seen depends on the method and setting. In cells and extracts the contact can be indirect. Some results given as binding are weak or reduced against the parent protein; the word gives no strength.

Amino acid sequences for entries named in this document (tags omitted).
UniProt O08586: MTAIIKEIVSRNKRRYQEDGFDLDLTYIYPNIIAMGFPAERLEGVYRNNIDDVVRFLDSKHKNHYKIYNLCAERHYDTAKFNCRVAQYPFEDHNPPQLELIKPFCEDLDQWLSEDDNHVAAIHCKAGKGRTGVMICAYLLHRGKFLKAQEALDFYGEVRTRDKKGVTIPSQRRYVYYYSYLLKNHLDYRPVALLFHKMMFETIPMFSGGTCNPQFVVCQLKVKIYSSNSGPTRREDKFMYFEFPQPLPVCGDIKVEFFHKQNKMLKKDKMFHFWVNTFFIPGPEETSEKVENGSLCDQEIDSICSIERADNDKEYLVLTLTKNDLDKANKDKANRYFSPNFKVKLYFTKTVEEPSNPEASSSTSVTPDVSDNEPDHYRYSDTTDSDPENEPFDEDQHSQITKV
UniProt P26369: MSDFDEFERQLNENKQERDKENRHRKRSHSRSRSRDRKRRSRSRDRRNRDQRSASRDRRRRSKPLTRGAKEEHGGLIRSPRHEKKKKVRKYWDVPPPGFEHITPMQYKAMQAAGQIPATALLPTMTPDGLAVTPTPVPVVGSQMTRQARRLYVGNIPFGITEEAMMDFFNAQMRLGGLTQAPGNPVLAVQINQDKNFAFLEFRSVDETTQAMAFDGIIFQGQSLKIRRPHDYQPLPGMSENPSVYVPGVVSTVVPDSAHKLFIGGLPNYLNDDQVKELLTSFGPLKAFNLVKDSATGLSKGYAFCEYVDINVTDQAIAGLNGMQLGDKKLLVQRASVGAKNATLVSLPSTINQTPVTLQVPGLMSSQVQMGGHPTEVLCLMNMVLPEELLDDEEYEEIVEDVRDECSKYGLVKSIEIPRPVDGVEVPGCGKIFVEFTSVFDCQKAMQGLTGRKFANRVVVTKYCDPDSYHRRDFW

Target: Pten (wild type) (mouse (endogenous in cortex)) (UniProt O08586)
Assay: co-IP; co-IP of Pten and U2af2 with nuclear/cytoplasmic fractionation; nuclear fractions of cortical lysates from wild-type, heterozygous and homozygous Pten m3m4 mice; Western blot

U2af2 (from UniProt P26369 1-475) was tested, and the binding was “binds”.
